Data source: PubChem BioAssay AID1259405 (NCATS, 2018)
Test: 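Silenced genes that increase secreted GFP made by CHO cells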 (primary screen). Cells: Chinese hamster CHO-K1 ovary cells with stable secreted eGFP expression. Knock-down reagent: single siRNA against mouse genes, 0.8 pmol siRNA per well (2 µl of 400 nM stock). Duration: 3 days. Read-out: 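Percent of the per-plate non-targeting control median for intracellular GFP per well by laser scanning cytometry and for cell viability by ATP luminescence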. Reading the numbers: GFP, % of control: higher = more GFP per well, higher productivity; viability (ATP), % of control: higher = more viable cells (more ATP). Active means: 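a knock-down is called active if GFP reaches 120% or more of non-targeting control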.
The deposit covers about 50,000 reagents; shown is a part drawn at random. In the full data, about 4,000 (8%) are marked active. 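Mouse siRNA library applied to hamster cells; one well for each siRNA.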 The numbers tell different reagents against one gene apart.

no.	gene	siRNA no.	GFP, % of control	viability (ATP), % of control	activity call
1	Cdhr1 (cadherin-related family member 1)	1	64.7	65.5	inactive
2	Cdhr1 (cadherin-related family member 1)	2	64.3	65.9	inactive
3	Fbn1 (fibrillin 1)	1	175	99.6	active
4	Fbn1 (fibrillin 1)	2	71.2	73.2	inactive
5	Sack1g (scaffolding CK1 anchoring protein G)	1	68.1	59	inactive
6	Sack1g (scaffolding CK1 anchoring protein G)	2	87.9	93.4	inactive
7	Sack1g (scaffolding CK1 anchoring protein G)	3	119	86.7	inactive
8	Fads3 (fatty acid desaturase 3)	1	60.9	61.1	inactive
9	Fads3 (fatty acid desaturase 3)	2	80.7	85.9	inactive
10	Fads3 (fatty acid desaturase 3)	3	88.2	84.3	inactive
11	Ntn1 (netrin 1)	1	94.6	117	inactive
12	Ntn1 (netrin 1)	2	102	91.2	inactive
13	Grk6 (G protein-coupled receptor kinase 6)	1	85.1	94.9	inactive
14	Grk6 (G protein-coupled receptor kinase 6)	2	61.6	60.6	inactive
15	Grk6 (G protein-coupled receptor kinase 6)	3	116	113	inactive
16	Slc30a6	1	108	65.2	inactive
17	Slc30a6	2	87.7	78	inactive
18	Slc30a6	3	73.8	98.9	inactive
19	Cept1 (choline/ethanolaminephosphotransferase 1)	1	34.9	26.9	inactive
20	Cept1 (choline/ethanolaminephosphotransferase 1)	2	75.1	96.4	inactive
21	Cept1 (choline/ethanolaminephosphotransferase 1)	3	52.1	44.1	inactive
22	Taar7d (trace amine-associated receptor 7D)	1	148	69.7	active
23	Taar7d (trace amine-associated receptor 7D)	2	81.8	85.5	inactive
24	Taar7d (trace amine-associated receptor 7D)	3	108	79.4	inactive
25	Or4f14b (olfactory receptor family 4 subfamily F member 14B)	1	103	96.7	inactive
26	Or4f14b (olfactory receptor family 4 subfamily F member 14B)	2	62.6	57.2	inactive
27	Or4f14b (olfactory receptor family 4 subfamily F member 14B)	3	97.6	83.9	inactive
28	Robo2 (roundabout guidance receptor 2)	1	101	71.4	inactive
29	Robo2 (roundabout guidance receptor 2)	2	58.2	115	inactive
30	Robo2 (roundabout guidance receptor 2)	3	44.7	77.2	inactive
31	Gm5089 (predicted gene 5089)	1	110	79.5	inactive
32	Gm5089 (predicted gene 5089)	2	121	94.3	active
33	Gm5089 (predicted gene 5089)	3	99.9	75.8	inactive
34	Or10ak13 (olfactory receptor family 10 subfamily AK member 13)	1	75.4	79.1	inactive
35	Or10ak13 (olfactory receptor family 10 subfamily AK member 13)	2	53.9	75.6	inactive
36	Or10ak13 (olfactory receptor family 10 subfamily AK member 13)	3	58.9	37.2	inactive
37	Cldnd1 (claudin domain containing 1)	1	95.9	79.9	inactive
38	Cldnd1 (claudin domain containing 1)	2	82.1	73.9	inactive
39	Cldnd1 (claudin domain containing 1)	3	75.5	53.1	inactive
40	Phkb (phosphorylase kinase beta)	1	81.2	68.2	inactive
41	Phkb (phosphorylase kinase beta)	2	119	96.8	inactive
42	Pde8a (phosphodiesterase 8A)	1	202	160	active
43	Pde8a (phosphodiesterase 8A)	2	50.2	43.2	inactive
44	Pde8a (phosphodiesterase 8A)	3	83.7	85.5	inactive
45	Drd2 (dopamine receptor D2)	1	155	107	active
46	Drd2 (dopamine receptor D2)	2	81.6	112	inactive
47	Drd2 (dopamine receptor D2)	3	98.2	76.1	inactive
48	Mael (maelstrom spermatogenic transposon silencer)	1	78.7	64.4	inactive
49	Mael (maelstrom spermatogenic transposon silencer)	2	73.1	91.6	inactive
50	Mael (maelstrom spermatogenic transposon silencer)	3	95.2	96.5	inactive

18 neighbouring entries already listed, quoted:
no.	gene	siRNA no.	GFP, % of control	viability (ATP), % of control	activity call
3	Fbn1 (fibrillin 1)	1	175	99.6	active
4	Fbn1 (fibrillin 1)	2	71.2	73.2	inactive
5	Sack1g (scaffolding CK1 anchoring protein G)	1	68.1	59	inactive
6	Sack1g (scaffolding CK1 anchoring protein G)	2	87.9	93.4	inactive
7	Sack1g (scaffolding CK1 anchoring protein G)	3	119	86.7	inactive
8	Fads3 (fatty acid desaturase 3)	1	60.9	61.1	inactive
9	Fads3 (fatty acid desaturase 3)	2	80.7	85.9	inactive
10	Fads3 (fatty acid desaturase 3)	3	88.2	84.3	inactive
11	Ntn1 (netrin 1)	1	94.6	117	inactive
12	Ntn1 (netrin 1)	2	102	91.2	inactive
13	Grk6 (G protein-coupled receptor kinase 6)	1	85.1	94.9	inactive
14	Grk6 (G protein-coupled receptor kinase 6)	2	61.6	60.6	inactive
15	Grk6 (G protein-coupled receptor kinase 6)	3	116	113	inactive
16	Slc30a6	1	108	65.2	inactive
17	Slc30a6	2	87.7	78	inactive
18	Slc30a6	3	73.8	98.9	inactive
19	Cept1 (choline/ethanolaminephosphotransferase 1)	1	34.9	26.9	inactive
20	Cept1 (choline/ethanolaminephosphotransferase 1)	2	75.1	96.4	inactive

Further reagents:
no.	gene	siRNA no.	GFP, % of control	viability (ATP), % of control	activity call
51	Or2ag16 (olfactory receptor family 2 subfamily AG member 16)	1	77.1	61.3	inactive
52	Or2ag16 (olfactory receptor family 2 subfamily AG member 16)	2	89.7	64	inactive
53	Or2ag16 (olfactory receptor family 2 subfamily AG member 16)	3	53	69.3	inactive
54	Ankmy1 (ankyrin repeat and MYND domain containing 1)	1	89.9	104	inactive
55	Ankmy1 (ankyrin repeat and MYND domain containing 1)	2	25.5	47.3	inactive
56	Ankmy1 (ankyrin repeat and MYND domain containing 1)	3	76.8	84.6	inactive
57	Gm3696 (predicted gene 3696)	1	84.1	109	inactive
58	Gm3696 (predicted gene 3696)	2	49	72.1	inactive
59	Gm3696 (predicted gene 3696)	3	116	91.6	inactive
60	Chfr (checkpoint with forkhead and ring finger domains)	1	76.2	85.7	inactive
61	Chfr (checkpoint with forkhead and ring finger domains)	2	51	64	inactive
62	Chfr (checkpoint with forkhead and ring finger domains)	3	70.2	76	inactive
63	Odf2 (outer dense fiber of sperm tails 2)	1	39.9	41	inactive
64	Odf2 (outer dense fiber of sperm tails 2)	2	115	79.4	inactive
65	Odf2 (outer dense fiber of sperm tails 2)	3	61.1	72.2	inactive
66	Smu1 (smu-1 suppressor of mec-8 and unc-52 homolog (C. elegans))	1	108	37.1	inactive
67	Smu1 (smu-1 suppressor of mec-8 and unc-52 homolog (C. elegans))	2	77.8	65.6	inactive
68	Smu1 (smu-1 suppressor of mec-8 and unc-52 homolog (C. elegans))	3	63.9	73.2	inactive
69	Ikbip (IKBKB interacting protein)	1	94.6	95	inactive
70	Ikbip (IKBKB interacting protein)	2	81.5	94.5	inactive
71	Ikbip (IKBKB interacting protein)	3	53.1	23.3	inactive
72	Psmb9	1	77.7	76.3	inactive
73	Psmb9	2	55.8	53.9	inactive
74	Psmb9	3	41.6	60.9	inactive
75	Cldn8 (claudin 8)	1	56.2	54.7	inactive
76	Cldn8 (claudin 8)	2	97.9	45.8	inactive
77	Cldn8 (claudin 8)	3	101	78.4	inactive
78	Sltm (SAFB-like, transcription modulator)	1	48	38.9	inactive
79	Sltm (SAFB-like, transcription modulator)	2	70.6	59.2	inactive
80	Sltm (SAFB-like, transcription modulator)	3	90.3	89.1	inactive
81	Aadacl2fm1 (AADACL2 family member 1)	1	83.9	33.4	inactive
82	Aadacl2fm1 (AADACL2 family member 1)	2	69.9	79.5	inactive
83	Aadacl2fm1 (AADACL2 family member 1)	3	59.7	85.7	inactive
84	Tuba3a (tubulin, alpha 3A)	1	65.8	57.4	inactive
85	Tuba3a (tubulin, alpha 3A)	2	65.7	105	inactive
86	Tuba3a (tubulin, alpha 3A)	3	62.9	58.1	inactive
87	Tssk1 (testis-specific serine kinase 1)	1	66.3	52.5	inactive
88	Cfap184 (cilia and flagella associated protein 184)	1	109	87.6	inactive
89	Cfap184 (cilia and flagella associated protein 184)	2	73	71.5	inactive
90	Cfap184 (cilia and flagella associated protein 184)	3	151	160	active
91	Chchd6 (coiled-coil-helix-coiled-coil-helix domain containing 6)	1	96.7	81.8	inactive
92	Chchd6 (coiled-coil-helix-coiled-coil-helix domain containing 6)	2	76.1	85.5	inactive
93	Chchd6 (coiled-coil-helix-coiled-coil-helix domain containing 6)	3	128	86.8	active
94	Trim30d (tripartite motif-containing 30D)	1	113	70.7	inactive
95	Trim30d (tripartite motif-containing 30D)	2	62.6	68.5	inactive
96	Trim30d (tripartite motif-containing 30D)	3	74.9	61.4	inactive
97	Raly (hnRNP-associated with lethal yellow)	1	105	78.3	inactive
98	Raly (hnRNP-associated with lethal yellow)	2	88.7	82.1	inactive
99	Raly (hnRNP-associated with lethal yellow)	3	57.2	66.6	inactive
100	Elf4 (E74 like ETS transcription factor 4)	1	38.4	30.4	inactive
101	Elf4 (E74 like ETS transcription factor 4)	2	73	50.8	inactive
102	Elf4 (E74 like ETS transcription factor 4)	3	59.7	97.3	inactive
103	Pacrg (PARK2 co-regulated)	1	23.3	33.7	inactive
104	Pacrg (PARK2 co-regulated)	2	58	51.8	inactive
105	Pacrg (PARK2 co-regulated)	3	81.9	104	inactive
106	Glul (glutamate-ammonia ligase)	1	87.5	84.1	inactive
107	Glul (glutamate-ammonia ligase)	2	87.8	90.7	inactive
108	Glul (glutamate-ammonia ligase)	3	52.6	38.4	inactive
